Measured data: PubChem BioAssay AID1259425 (University of Nebraska Medical Center, 2018)
Aim: 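Seek colon cancer weak points whose silencing resembles KSR1 loss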 (primary screen). Cells: HCT116 human colon cancer cells. Reagents: siRNA pool against human genes, 50 nM siRNA. Measurement: 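mRNA of six signature genes measured together by branched-DNA assay after 50 nM siRNA pool, blank removed, divided by geometric mean of two housekeeping genes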. Direction: BNIP3L mRNA: higher = more BNIP3L transcript after knockdown; NDRG1 mRNA: higher = more NDRG1 transcript after knockdown.
Here is one part, drawn at random, of about 14,000 reagents. Not all columns of the deposit are shown. Not stated in the record: the time to read-out.

The opening 2 records as a preview:
ZNF430 → BNIP3L mRNA, set 1 = 0.128; NDRG1 mRNA, set 1 = 0.481
PHC2 → BNIP3L mRNA, set 1 = 0.408; NDRG1 mRNA, set 1 = 0.161

Main list, from the start:
ZNF430 → BNIP3L mRNA, set 1 = 0.128; NDRG1 mRNA, set 1 = 0.481
PHC2 → BNIP3L mRNA, set 1 = 0.408; NDRG1 mRNA, set 1 = 0.161
TRMT6 → BNIP3L mRNA, set 1 = 0.163; NDRG1 mRNA, set 1 = 0.134
ADRA2A → BNIP3L mRNA, set 1 = 0.326; NDRG1 mRNA, set 1 = 0.387
NAIP → BNIP3L mRNA, set 1 = 0.0779; NDRG1 mRNA, set 1 = 0.141
TOX2 → BNIP3L mRNA, set 1 = 0.178; NDRG1 mRNA, set 1 = 0.26
SDK2 → BNIP3L mRNA, set 1 = 0.121; NDRG1 mRNA, set 1 = 0.064
PEAK1 → BNIP3L mRNA, set 1 = 0.196; NDRG1 mRNA, set 1 = 0.299
PGRMC2 → BNIP3L mRNA, set 1 = 0.0605; NDRG1 mRNA, set 1 = 0.245
MR1 → BNIP3L mRNA, set 1 = 0.103; NDRG1 mRNA, set 1 = 0.152
PRR11 → BNIP3L mRNA, set 1 = 0.0404; NDRG1 mRNA, set 1 = 0.114
MPV17L2 → BNIP3L mRNA, set 1 = 0.243; NDRG1 mRNA, set 1 = 0.215
PPP1R2 → BNIP3L mRNA, set 1 = 0.132; NDRG1 mRNA, set 1 = 0.261
IGF2BP3 → BNIP3L mRNA, set 1 = 0.229; NDRG1 mRNA, set 1 = 0.0653
RTBDN → BNIP3L mRNA, set 1 = 0.229; NDRG1 mRNA, set 1 = 0.642
TIMM17A → BNIP3L mRNA, set 1 = 0.133; NDRG1 mRNA, set 1 = 0.134
GUCY2C → BNIP3L mRNA, set 1 = 0.0679; NDRG1 mRNA, set 1 = 0.134
HVCN1 → BNIP3L mRNA, set 1 = 0.168; NDRG1 mRNA, set 1 = 0.378
SELENOS → BNIP3L mRNA, set 1 = 0.0393; NDRG1 mRNA, set 1 = 0.114
OTOR → BNIP3L mRNA, set 1 = 0.143; NDRG1 mRNA, set 1 = 0.344
CC2D1A → BNIP3L mRNA, set 1 = 0.66; NDRG1 mRNA, set 1 = 2.44
HECTD1 → BNIP3L mRNA, set 1 = 0.115; NDRG1 mRNA, set 1 = 0.165
VNN2 → BNIP3L mRNA, set 1 = 0.179; NDRG1 mRNA, set 1 = 0.675
C1orf35 → BNIP3L mRNA, set 1 = 0.0858; NDRG1 mRNA, set 1 = 0.248
LIAS → BNIP3L mRNA, set 1 = 0.0803; NDRG1 mRNA, set 1 = 0.354
MANBA → BNIP3L mRNA, set 1 = 0.129; NDRG1 mRNA, set 1 = 0.257
LAG3 → BNIP3L mRNA, set 1 = 0.265; NDRG1 mRNA, set 1 = 0.301
BCL7A → BNIP3L mRNA, set 1 = 0.172; NDRG1 mRNA, set 1 = 0.162
